Experimental data as given in PubChem BioAssay AID1347076 (National Center for Advancing Translational Sciences (NCATS), 2019).
Screen size: about 400,000 compounds; about 13,000 (3.2%) were called active. Inconclusive means that the source gave no clear call. Such entries were picked first, then a sample of the others. Calls come from the whole dose curve; as a rule, active = well fitted cell-killing curve with a large enough effect; inconclusive = small, poorly fitted or top-dose-only effect, or effect the other way; inactive = flat fitted curve, though single readings scatter. A potency beside an inconclusive call is a rough fit, not a confirmed value.

Assay: qHTS assay for MDR1-selective chemotherapeutics: Primary screen using the drug-selected MDR subline cells KB-V1; note: nearly all actives have a fitted effect of over 60% in size
Conditions: KB-V1 MDR cells viability, CellTiter-Glo, 72 h; activity change, negative = cytotoxicity: at 46.1 µM (top of the series)
Summary of the method: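 KB-V1, DMEM (no phenol red) + 10% FBS; cpd pin-transferred, titration series; 72 h, 37 degrees C; CellTiter-Glo, luminescence. Data normalized, curve-fit.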
% is set by controls: 0 for no effect and ±100 for the full control effect; potency is the fitted concentration of half-maximal effect.

SMILES	Potency	activity change, negative = cytotoxicity
CCCn1c(C)c(C(=O)OCC)c(O)c(-c2ccccc2)c1=O	inactive	
O=C(CCCCC(=O)NNC(=O)COc1ccccc1)NNC(=O)COc1ccccc1	inconclusive: 3.66 µM [rising, full curve]	
COc1ccc(N2C(=O)CC(NNc3nc4ccccc4s3)C2=O)cc1 (centres undefined)	inconclusive: 3.26 µM [rising, full curve]	
O=C(c1ccco1)N1CCN(c2ccc(Cl)cc2)CC1	inactive	
COCCNC(=O)c1ccc2c(c1)N=C(C)c1cc(C)ccc1S2	active: 0.92 µM	
O=C(N/N=C/c1ccc(Br)cc1)c1cc[n+](Cc2ccccc2)cc1	inconclusive: 8.2 µM [rising, partial curve, poor fit]	
NS(=O)(=O)c1ccc2nc(NC(=O)COc3ccc(Cl)cc3Cl)sc2c1	inconclusive: 29.1 µM [rising, single point]	
COc1cc(-c2noc(CCCC(=O)NC3CCCCC3)n2)cc(OC)c1OC	inactive	
O=C(N/C(=C/c1ccc(Br)cc1)C(=O)N1CCCC1=O)c1ccco1	inconclusive: 20.6 µM [rising, partial curve, poor fit]	
Cc1cc(C)n2cc(CSc3nnnn3-c3ccc(Cl)cc3)nc2n1		inconclusive: -61.1%
COc1ccc2cc(C#N)c(NC(C)C)nc2c1	inconclusive: 29.1 µM [cytotoxic, single point]	
O=C(CCOc1ccccc1)Nc1ccccc1F	inconclusive: 29.1 µM [rising, single point]	
Cc1cc(C)c(CN2CCN(C(=O)Cn3cnc4c(OCc5ccccc5)ncnc43)CC2)c(C)c1	inactive	
O=C(NNC(=O)c1ccc(S(=O)(=O)N2CCCC2)cc1)c1ccc(Br)cc1	inactive	
O=C(CSc1nc2ccccc2c2nc3ccccc3n12)NCc1ccco1	inconclusive: 10.3 µM [cytotoxic, partial curve]	
CC(C)N(Cc1ccccc1)C(=O)/C=C/c1ccccc1[N+](=O)[O-]	inconclusive: 16.4 µM [cytotoxic, single point]	
CCc1c(O)nc(SC2CC(=O)N(c3ccc(F)c(Cl)c3)C2=O)[nH]c1=O (centres undefined)	inconclusive: 29.1 µM [rising, single point]	
CC1CN(S(=O)(=O)c2ccc(C(=O)Nc3sccc3C(N)=O)cc2)CC(C)O1 (centres undefined)	inconclusive: 7.31 µM [cytotoxic, partial curve, poor fit]	
O=C(CNS(=O)(=O)c1ccc2c(c1)OCCCO2)N1CCN(c2ccc(F)cc2)CC1	inconclusive: 25.9 µM [cytotoxic, single point]	
CCN(CC)CCCNC(=O)c1ccc2c(Cl)c3c(nc2c1)CCCC3	inconclusive: 29.1 µM [cytotoxic, single point]	
COCCCNC(=O)C1CCN(c2cc(C)nc3c(-c4ccc(Cl)cc4)c(C)nn23)CC1	inactive	
COc1cc(/C=N/N2CCCCC2)cc([N+](=O)[O-])c1O	inactive	
CCCc1ccc(Oc2cn[nH]c2-c2ccc(O)cc2O)cc1	inactive	
COc1cccc(-c2cc(C(F)(F)F)nc(NCc3ccco3)n2)c1	inconclusive: 23.1 µM [cytotoxic, single point]	
CCOC(=O)C1=CCN(S(=O)(=O)c2ccccc2Br)C1c1ccc(Br)cc1 (centres undefined)	inconclusive: 23.1 µM [cytotoxic, single point]	

SMILES	Potency	activity change, negative = cytotoxicity
Cc1n[nH]c(C)c1CCC(=O)N/N=C/c1c(C)[nH]c2ccccc12	inconclusive: 25.9 µM [rising, single point]	
O=C(NC(=S)Nc1ccccc1N1CCN(C(=O)c2ccccc2)CC1)c1cccs1	inactive	
COc1ccc(C(=O)NCCn2cc(SCC(=O)Nc3ccc4c(c3)OCCO4)c3ccccc32)cc1OC	inconclusive: 0.0052 µM [rising, full curve]	
CCOC(=O)Cn1c(=O)n(-c2ccccc2OC)c2nc(-c3ccc(C(C)C)cc3)nc(C(N)=O)c21	inactive	
C/C(N)=C(/C#N)C(=O)CSc1nnc(COc2cc(C)ccc2C)o1	inactive	
COc1cc(-c2nc(-c3cccc(C(F)(F)F)c3)no2)cc(OC)c1OC	inconclusive: 16.4 µM [cytotoxic, single point]	
COc1ccccc1-n1cnc2c(c1=O)c1nc3ccccc3nc1n2-c1ccc(C)cc1	inconclusive: 10.3 µM [cytotoxic, partial curve, poor fit]	
Cc1ccc(S(=O)(=O)N2CCOCC2)cc1C(=O)N1CCC(Cc2ccccc2)CC1	inconclusive: 10.3 µM [cytotoxic, partial curve]	
Cc1cccc(-c2nc(CSCC(=O)NCc3cccs3)c(C)o2)c1	inconclusive: 29.1 µM [cytotoxic, single point]	
CCCCn1c(-c2ccc(C(C)(C)C)cc2)nc2cc3[nH]c(=O)c(C(C)C)nc3cc21	inactive	
CCOC(=O)N1CCN(C(=O)c2ccc3c(c2)N=C(C)c2cc(Cl)ccc2S3)CC1	inactive	
c1ccc(CN2CCC3(CCCc4ccccc43)CC2)cc1	inconclusive: 18.4 µM [cytotoxic, single point]	
CC1Cc2ccccc2N1C1=CC(=O)CCC1 (centres undefined)	inconclusive: 18.4 µM [cytotoxic, single point]	
CC1(C(=O)NS(=O)(=O)c2cccc(C#N)c2)CCN1C(=O)Cc1ccc(Cl)cc1Cl (centres undefined)	inactive	
O=C(Nc1ccc(Br)cc1)c1cccnc1N1CCCCC1	inconclusive: 18.4 µM [cytotoxic, partial curve, poor fit]	
CCCCn1c(SCc2nc(N)nc(N3CCCCC3)n2)nc2c1c(=O)n(C)c(=O)n2C	active: 8.2 µM	
COc1cccc(CNC(=O)CCN2C(=S)NC(C)(C)CC2C)c1 (centres undefined)	inconclusive: 18.4 µM [cytotoxic, partial curve, poor fit]	
Cc1ccc(S(=O)(=O)NCCc2csc(-c3cccc(F)c3)n2)cc1	inactive	
Cc1nc(N2CCCCC2)nc(N2CCCCC2)c1C=O	inconclusive: 16.4 µM [cytotoxic, single point]	
Cc1cccc(COc2ccccc2/C=N/Nc2ccc([N+](=O)[O-])cc2)c1	active: 16.4 µM	
CCOc1ccc(C(=O)NCC(=O)OCC(=O)Nc2nnc(-c3ccccc3)o2)cc1	inconclusive: 29.1 µM [rising, single point]	
CC(C)(C)Nc1nc(Oc2ccc(=O)n(-c3ccccc3)n2)nc(N2CCOCC2)n1	inconclusive: 29.1 µM [cytotoxic, single point]	
Cc1cccn2c(=O)c3cc(C(=O)Nc4ccc(Cl)c(Cl)c4)sc3nc12	inconclusive: 20.6 µM [rising, single point]	
CCn1cc(S(=O)(=O)CC(=O)Nc2cc(C)on2)c2ccccc21	inconclusive: 23.1 µM [cytotoxic, single point]	
Cc1ccc2nc(C3CCN(C(=O)c4ccco4)CC3)[nH]c2c1		inconclusive: -17.3%

Record cards (already shown):
COc1ccc2cc(C#N)c(NC(C)C)nc2c1 as listed: Potency: inconclusive: 29.1 µM [cytotoxic, single point]
COCCCNC(=O)C1CCN(c2cc(C)nc3c(-c4ccc(Cl)cc4)c(C)nn23)CC1 as listed: Potency: inactive
NS(=O)(=O)c1ccc2nc(NC(=O)COc3ccc(Cl)cc3Cl)sc2c1 as listed: Potency: inconclusive: 29.1 µM [rising, single point]
CCc1c(O)nc(SC2CC(=O)N(c3ccc(F)c(Cl)c3)C2=O)[nH]c1=O (centres undefined) as listed: Potency: inconclusive: 29.1 µM [rising, single point]

3 compounds already listed, ordered by count of non-hydrogen atoms, ascending:
SMILES	Potency	activity change, negative = cytotoxicity
CCn1cc(S(=O)(=O)CC(=O)Nc2cc(C)on2)c2ccccc21	inconclusive: 23.1 µM [cytotoxic, single point]	
Cc1cc(C)n2cc(CSc3nnnn3-c3ccc(Cl)cc3)nc2n1		inconclusive: -61.1%
Cc1ccc(S(=O)(=O)N2CCOCC2)cc1C(=O)N1CCC(Cc2ccccc2)CC1	inconclusive: 10.3 µM [cytotoxic, partial curve]	

(more compounds)

SMILES	Potency	activity change, negative = cytotoxicity
CN(C)CCCNC1CS(=O)(=O)CC1O (centres undefined)	inconclusive: 11.6 µM [rising, partial curve, poor fit]	
CC(Oc1ccc(C#N)cc1)C(=O)NC1CCCC1 (centres undefined)	inactive	
Cc1ccc(NC(=O)CN2C(=O)CC(C)Sc3ccccc32)c(C)c1 (centres undefined)	inconclusive: 8.2 µM [cytotoxic, partial curve]	
COc1cc2c(cc1OC)C(c1ccsc1)CC(=O)N2 (centres undefined)	inconclusive: 25.9 µM [cytotoxic, single point]	
Cc1nnsc1NC(=O)OCc1ccc(Cl)cc1Cl	inactive	
CC(=O)c1ccc(NC(=O)Cn2cnc(S(=O)(=O)N3CCC(C)CC3)c2)cc1	inconclusive: 23.1 µM [rising, single point]	
CC1(C)CC(=O)N(CC(=O)NCc2ccc(F)cc2)c2ccccc2S1(=O)=O		inconclusive: 47.8%
c1ccc(C(CN2CCOCC2)c2ccccc2)cc1	inconclusive: 20.6 µM [cytotoxic, single point]	
Cc1cc(F)ccc1S(=O)(=O)Nc1ccc(C(=O)N2CCCCCC2)cc1	inactive	
COc1ccc(C(=O)Nc2cc(C(C)=O)c(/C=C/N(C)C)oc2=O)cc1	inconclusive: 5.8 µM [cytotoxic, partial curve]	
COc1ccc(C)cc1NC(=O)NCc1ccccn1	inactive	
COC(=O)c1sc(S(=O)(=O)N2CCCCC2C)c(C(=O)OC)c1C (centres undefined)	inconclusive: 29.1 µM [cytotoxic, single point]	
CCOc1ccccc1NC(=O)C1CCN(C(=O)NCc2ccccc2)CC1		inconclusive: -30.4% [cytotoxic]
Nc1nc(-c2cc3ccccc3o2)cs1	inactive	
O=C(CSc1ccccc1)NCC1(N2CCOCC2)CCCCC1	inactive	
CCc1nn(-c2ccccc2)c(N)c1-c1ccc(OC)c(OC)c1	inactive	
Nc1n[nH]c(S(=O)(=O)CCCc2ccccc2)n1		inconclusive: 31.4%
CC(C)Sc1nc(-c2cccs2)nc2cc(Cl)ccc12	inactive	
O=C(Nc1ccc(-c2nc3cc(NC(=O)c4cccs4)ccc3o2)cc1)c1cccs1	inconclusive: 14.1 µM [cytotoxic, single point]	
CCOc1ncccc1C(=O)NCc1ccc(OC)cc1	active: 13 µM	
O=C(NC1CCCC1)C1CCN(C(=O)Nc2cccc(Cl)c2)CC1	inactive	
CCOC(=O)c1c(C)[nH]c(/C(C)=N/O)c1C	inconclusive: 23.1 µM [cytotoxic, partial curve, poor fit]	
Cc1cc2cc(C)c3nnc(SCc4ccccn4)n3c2cc1C	inactive	
COc1ccc(C(=O)NC(c2ccc(Cl)cc2)c2cc(Cl)c3cccnc3c2O)cc1 (centres undefined)	inconclusive: 2.31 µM [cytotoxic, partial curve, poor fit]	
